# According to publication PMC6830099:
# By UniProt entry, the sequences of proteins in these tests, tags left out.
# UniProt Q99728: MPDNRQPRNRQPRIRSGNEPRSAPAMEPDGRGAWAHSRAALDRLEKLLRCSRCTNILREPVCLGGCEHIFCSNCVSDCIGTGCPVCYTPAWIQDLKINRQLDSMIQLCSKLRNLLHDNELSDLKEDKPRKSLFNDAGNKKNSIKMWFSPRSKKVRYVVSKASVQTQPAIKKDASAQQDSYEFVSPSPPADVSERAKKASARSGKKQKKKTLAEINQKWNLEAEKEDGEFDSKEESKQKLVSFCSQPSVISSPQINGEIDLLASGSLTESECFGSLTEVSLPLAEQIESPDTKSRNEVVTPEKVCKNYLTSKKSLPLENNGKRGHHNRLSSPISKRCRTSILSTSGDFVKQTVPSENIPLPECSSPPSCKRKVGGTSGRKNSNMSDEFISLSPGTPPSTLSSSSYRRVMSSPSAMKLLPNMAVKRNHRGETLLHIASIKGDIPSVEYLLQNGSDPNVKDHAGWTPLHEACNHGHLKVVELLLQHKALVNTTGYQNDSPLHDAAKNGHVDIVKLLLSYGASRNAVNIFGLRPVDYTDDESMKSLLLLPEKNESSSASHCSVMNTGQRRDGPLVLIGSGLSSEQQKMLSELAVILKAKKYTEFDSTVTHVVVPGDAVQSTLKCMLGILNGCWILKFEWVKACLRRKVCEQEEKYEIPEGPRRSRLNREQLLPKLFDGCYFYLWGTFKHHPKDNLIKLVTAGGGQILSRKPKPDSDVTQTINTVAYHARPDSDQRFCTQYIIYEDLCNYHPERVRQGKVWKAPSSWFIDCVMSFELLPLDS
# UniProt Q12888: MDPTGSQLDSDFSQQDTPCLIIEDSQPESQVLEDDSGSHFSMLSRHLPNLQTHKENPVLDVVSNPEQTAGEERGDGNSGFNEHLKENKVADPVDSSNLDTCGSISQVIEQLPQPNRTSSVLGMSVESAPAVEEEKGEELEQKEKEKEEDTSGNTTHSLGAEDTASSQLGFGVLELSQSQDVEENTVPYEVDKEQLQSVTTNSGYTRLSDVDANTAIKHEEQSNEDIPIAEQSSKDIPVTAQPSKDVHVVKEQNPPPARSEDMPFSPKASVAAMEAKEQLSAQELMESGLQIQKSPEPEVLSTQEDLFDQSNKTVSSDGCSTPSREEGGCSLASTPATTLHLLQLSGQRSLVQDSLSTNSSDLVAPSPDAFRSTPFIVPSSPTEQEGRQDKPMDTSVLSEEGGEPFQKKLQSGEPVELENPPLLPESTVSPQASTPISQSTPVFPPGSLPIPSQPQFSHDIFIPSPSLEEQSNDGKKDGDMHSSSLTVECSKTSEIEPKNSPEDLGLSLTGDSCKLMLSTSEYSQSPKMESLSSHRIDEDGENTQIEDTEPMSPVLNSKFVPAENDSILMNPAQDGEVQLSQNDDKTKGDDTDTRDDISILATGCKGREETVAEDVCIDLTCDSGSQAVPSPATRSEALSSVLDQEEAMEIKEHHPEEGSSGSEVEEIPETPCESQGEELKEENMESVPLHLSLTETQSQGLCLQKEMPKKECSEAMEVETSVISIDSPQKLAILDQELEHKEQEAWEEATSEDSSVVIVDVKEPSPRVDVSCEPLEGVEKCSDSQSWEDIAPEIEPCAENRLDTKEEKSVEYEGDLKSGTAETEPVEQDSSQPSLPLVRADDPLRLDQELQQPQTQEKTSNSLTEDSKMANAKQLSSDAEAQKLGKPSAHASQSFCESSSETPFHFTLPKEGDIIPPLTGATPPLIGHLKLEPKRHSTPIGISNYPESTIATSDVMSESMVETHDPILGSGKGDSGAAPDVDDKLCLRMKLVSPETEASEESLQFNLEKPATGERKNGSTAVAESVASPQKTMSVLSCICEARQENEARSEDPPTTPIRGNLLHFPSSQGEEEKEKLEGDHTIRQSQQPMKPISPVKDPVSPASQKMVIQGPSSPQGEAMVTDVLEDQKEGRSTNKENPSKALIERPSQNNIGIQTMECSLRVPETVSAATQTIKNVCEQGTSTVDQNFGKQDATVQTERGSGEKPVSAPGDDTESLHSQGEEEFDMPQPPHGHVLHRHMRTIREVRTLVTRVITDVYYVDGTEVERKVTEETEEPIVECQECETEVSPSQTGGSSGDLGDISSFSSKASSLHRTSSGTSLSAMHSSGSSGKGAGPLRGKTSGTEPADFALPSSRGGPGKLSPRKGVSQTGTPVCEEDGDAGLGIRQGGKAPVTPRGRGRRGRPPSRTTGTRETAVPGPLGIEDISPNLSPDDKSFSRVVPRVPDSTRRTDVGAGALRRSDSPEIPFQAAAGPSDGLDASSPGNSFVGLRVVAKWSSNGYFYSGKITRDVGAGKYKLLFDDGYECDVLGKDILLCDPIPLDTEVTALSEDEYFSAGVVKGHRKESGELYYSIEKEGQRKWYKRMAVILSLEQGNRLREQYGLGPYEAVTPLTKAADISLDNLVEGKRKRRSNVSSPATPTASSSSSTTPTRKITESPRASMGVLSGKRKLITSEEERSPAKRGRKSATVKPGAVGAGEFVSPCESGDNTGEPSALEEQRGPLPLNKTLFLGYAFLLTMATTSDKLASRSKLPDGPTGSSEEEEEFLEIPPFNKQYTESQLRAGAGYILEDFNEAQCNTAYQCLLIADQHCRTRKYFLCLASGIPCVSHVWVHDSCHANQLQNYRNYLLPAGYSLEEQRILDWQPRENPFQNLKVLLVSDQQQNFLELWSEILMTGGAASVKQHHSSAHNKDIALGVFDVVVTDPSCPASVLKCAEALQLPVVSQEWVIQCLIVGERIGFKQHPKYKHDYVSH
# Results are given in words; binding and its absence hold for the method and conditions named. Binding seen in cells or lysates may run through a third protein. Some entries that bind do so weakly or less than the wild type. Sequences can lack the tags named with a protein.
# T1: GFP-WIP1 (UniProt O15297)
# T1 sequence: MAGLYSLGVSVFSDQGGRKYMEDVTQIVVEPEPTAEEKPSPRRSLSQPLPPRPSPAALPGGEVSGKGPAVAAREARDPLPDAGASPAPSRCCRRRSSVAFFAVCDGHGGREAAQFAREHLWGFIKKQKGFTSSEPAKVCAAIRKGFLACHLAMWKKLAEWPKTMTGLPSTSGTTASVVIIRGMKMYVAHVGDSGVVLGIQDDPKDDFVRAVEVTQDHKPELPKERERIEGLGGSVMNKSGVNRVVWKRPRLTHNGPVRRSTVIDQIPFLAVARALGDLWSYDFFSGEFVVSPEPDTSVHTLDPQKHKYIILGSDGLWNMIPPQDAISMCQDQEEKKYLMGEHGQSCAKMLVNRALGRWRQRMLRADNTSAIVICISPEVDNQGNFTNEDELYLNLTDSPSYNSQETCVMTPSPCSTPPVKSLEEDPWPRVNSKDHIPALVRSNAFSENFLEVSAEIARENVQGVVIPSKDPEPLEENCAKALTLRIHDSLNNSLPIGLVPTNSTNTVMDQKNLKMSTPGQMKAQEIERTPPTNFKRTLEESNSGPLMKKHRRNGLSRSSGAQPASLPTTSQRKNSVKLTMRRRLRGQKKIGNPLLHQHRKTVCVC
# Assays:
# GFP-WIP1 = biological target: T1, GFP-WIP1; test: co-IP; GFP-tagged bait precipitated with GFP-Trap beads (1 h) from lysates of transfected HEK293 cells; lysis buffer 50 mM Tris pH 8.0, 120 mM NaCl, 1% Tween-20, 0.1% NP-40, with benzonase and EtBr; 4 washes; Western blotting; cells untreated, or exposed to 3 Gy of IR and collected at indicated times (Figure 4B)
# GFP-BARD1 = GFP-BARD1 (UniProt Q99728); test: as above
Molecule,binding (GFP-WIP1),binding (GFP-BARD1)
"TP53-binding protein 1 (53BP1), endogenous in HEK293 (from UniProt Q12888 1-1972)",binds,
"Flag-WIP1 (enzyme, UniProt O15297 1-605) MAGLYSLGVSVFSDQGGRKYMEDVTQIVVEPEPTAEEKPSPRRSLSQPLPPRPSPAALPGGEVSGKGPAVAAREARDPLPDAGASPAPSRCCRRRSSVAFFAVCDGHGGREAAQFAREHLWGFIKKQKGFTSSEPAKVCAAIRKGFLACHLAMWKKLAEWPKTMTGLPSTSGTTASVVIIRGMKMYVAHVGDSGVVLGIQDDPKDDFVRAVEVTQDHKPELPKERERIEGLGGSVMNKSGVNRVVWKRPRLTHNGPVRRSTVIDQIPFLAVARALGDLWSYDFFSGEFVVSPEPDTSVHTLDPQKHKYIILGSDGLWNMIPPQDAISMCQDQEEKKYLMGEHGQSCAKMLVNRALGRWRQRMLRADNTSAIVICISPEVDNQGNFTNEDELYLNLTDSPSYNSQETCVMTPSPCSTPPVKSLEEDPWPRVNSKDHIPALVRSNAFSENFLEVSAEIARENVQGVVIPSKDPEPLEENCAKALTLRIHDSLNNSLPIGLVPTNSTNTVMDQKNLKMSTPGQMKAQEIERTPPTNFKRTLEESNSGPLMKKHRRNGLSRSSGAQPASLPTTSQRKNSVKLTMRRRLRGQKKIGNPLLHQHRKTVCVC",,binds
